Assay results reported in publication doi:10.1101/2022.05.16.492129.
Read-outs that look alike come from different tables or passages of the source. Results are given in words; binding and its absence hold for the method and conditions named. Some binding calls cover weakened binding; strength is not graded here.

Amino acid sequences for entries named in this document (tags omitted). Residues count along the entry.
UniProt Q6PDJ1, residues 50-1107: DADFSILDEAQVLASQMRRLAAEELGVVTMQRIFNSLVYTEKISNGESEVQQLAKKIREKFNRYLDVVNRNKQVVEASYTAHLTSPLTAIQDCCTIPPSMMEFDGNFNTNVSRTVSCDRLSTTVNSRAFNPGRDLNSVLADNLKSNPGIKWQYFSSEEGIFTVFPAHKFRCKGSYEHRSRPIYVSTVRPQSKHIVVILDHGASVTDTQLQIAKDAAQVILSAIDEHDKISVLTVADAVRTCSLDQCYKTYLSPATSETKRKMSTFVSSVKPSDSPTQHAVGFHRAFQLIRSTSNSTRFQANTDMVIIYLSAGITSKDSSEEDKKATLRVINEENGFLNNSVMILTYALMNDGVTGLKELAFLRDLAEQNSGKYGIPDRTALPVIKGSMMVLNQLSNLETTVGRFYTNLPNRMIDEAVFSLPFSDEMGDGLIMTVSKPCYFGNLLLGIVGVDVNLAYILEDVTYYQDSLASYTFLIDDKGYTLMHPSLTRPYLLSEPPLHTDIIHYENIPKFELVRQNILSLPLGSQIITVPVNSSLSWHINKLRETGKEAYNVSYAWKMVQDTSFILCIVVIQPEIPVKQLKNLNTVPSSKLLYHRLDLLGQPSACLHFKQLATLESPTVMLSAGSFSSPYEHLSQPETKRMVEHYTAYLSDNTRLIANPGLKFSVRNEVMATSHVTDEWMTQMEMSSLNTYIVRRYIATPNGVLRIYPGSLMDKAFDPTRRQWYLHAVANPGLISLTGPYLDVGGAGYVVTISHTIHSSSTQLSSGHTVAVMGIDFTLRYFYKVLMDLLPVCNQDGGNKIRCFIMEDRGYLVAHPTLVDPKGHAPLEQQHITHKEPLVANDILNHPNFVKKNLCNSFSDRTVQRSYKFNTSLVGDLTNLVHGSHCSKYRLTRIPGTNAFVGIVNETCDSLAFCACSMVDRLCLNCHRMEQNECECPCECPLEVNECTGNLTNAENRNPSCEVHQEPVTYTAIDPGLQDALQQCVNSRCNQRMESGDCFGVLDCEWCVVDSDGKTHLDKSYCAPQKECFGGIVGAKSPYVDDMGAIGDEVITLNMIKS

Tests used:
[1] = molecular target: T1, mouse FZD5 cysteine rich domain (FZD5CRD), for crystallography (mouse) (UniProt Q9EQD0); test: crystal structure
T1 sequence: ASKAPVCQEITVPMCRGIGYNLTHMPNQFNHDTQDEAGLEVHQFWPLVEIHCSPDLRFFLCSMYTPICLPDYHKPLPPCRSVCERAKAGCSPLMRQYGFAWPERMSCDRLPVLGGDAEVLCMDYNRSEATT

[2] = molecular target: T1, mouse FZD5 cysteine rich domain (FZD5CRD), for crystallography (mouse); test: crystal structure; remark: listed apart in the source

## mouse Cachd1 extracellular domain (CACHD1ECD) (from UniProt Q6PDJ1 50-1107) (domain or fragment)
[1]
  binding: binds
[2]
  binding: binds
